Data taken from the supplement of paper PMC6411743.
± gives the standard deviation of the averaged measurements. This is a selection; strong and weak results do not stand in their true shares. Small differences around the control level are noise.

By UniProt entry, the sequences of proteins in these tests, tags left out. Where a name states a change or a piece, a line headed by the entry shows the natural chain unless it says otherwise.
UniProt Q12851: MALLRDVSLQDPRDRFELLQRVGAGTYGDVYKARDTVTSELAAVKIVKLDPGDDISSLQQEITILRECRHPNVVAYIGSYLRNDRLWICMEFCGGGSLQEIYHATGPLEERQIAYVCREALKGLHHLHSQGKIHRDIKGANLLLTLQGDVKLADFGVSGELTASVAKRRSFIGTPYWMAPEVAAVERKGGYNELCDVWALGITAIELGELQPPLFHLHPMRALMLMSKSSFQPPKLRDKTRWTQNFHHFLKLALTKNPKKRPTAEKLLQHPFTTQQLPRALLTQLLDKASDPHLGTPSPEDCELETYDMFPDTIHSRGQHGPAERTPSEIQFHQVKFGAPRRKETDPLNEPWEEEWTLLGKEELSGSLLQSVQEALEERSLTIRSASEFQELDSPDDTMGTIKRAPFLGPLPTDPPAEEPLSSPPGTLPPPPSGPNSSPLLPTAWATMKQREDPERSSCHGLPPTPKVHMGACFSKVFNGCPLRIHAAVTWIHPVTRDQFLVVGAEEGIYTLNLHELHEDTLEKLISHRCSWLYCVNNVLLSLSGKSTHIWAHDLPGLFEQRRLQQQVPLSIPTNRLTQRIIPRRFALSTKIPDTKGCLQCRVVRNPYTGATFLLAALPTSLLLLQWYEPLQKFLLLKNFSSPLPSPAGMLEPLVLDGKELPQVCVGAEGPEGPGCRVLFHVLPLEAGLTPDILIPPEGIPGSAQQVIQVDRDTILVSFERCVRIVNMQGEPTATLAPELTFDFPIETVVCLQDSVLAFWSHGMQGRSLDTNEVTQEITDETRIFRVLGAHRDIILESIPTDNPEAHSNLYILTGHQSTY
UniProt Q13505: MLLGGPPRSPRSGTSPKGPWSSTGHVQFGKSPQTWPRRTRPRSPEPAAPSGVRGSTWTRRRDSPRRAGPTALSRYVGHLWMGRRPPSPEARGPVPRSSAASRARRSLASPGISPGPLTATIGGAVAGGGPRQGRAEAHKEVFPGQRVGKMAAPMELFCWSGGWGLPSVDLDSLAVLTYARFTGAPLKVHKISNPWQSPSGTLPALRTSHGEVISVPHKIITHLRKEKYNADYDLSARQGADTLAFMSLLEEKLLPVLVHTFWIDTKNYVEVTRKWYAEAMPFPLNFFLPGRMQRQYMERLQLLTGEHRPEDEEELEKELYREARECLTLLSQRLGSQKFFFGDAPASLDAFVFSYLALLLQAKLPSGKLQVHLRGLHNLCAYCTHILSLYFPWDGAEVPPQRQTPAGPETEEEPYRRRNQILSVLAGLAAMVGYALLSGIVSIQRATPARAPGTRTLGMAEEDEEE
UniProt P13693: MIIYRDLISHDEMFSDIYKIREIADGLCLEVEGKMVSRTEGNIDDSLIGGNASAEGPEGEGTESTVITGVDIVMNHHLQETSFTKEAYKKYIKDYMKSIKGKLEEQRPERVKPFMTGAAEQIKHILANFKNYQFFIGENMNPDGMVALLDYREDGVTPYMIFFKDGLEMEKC
UniProt Q96FV9: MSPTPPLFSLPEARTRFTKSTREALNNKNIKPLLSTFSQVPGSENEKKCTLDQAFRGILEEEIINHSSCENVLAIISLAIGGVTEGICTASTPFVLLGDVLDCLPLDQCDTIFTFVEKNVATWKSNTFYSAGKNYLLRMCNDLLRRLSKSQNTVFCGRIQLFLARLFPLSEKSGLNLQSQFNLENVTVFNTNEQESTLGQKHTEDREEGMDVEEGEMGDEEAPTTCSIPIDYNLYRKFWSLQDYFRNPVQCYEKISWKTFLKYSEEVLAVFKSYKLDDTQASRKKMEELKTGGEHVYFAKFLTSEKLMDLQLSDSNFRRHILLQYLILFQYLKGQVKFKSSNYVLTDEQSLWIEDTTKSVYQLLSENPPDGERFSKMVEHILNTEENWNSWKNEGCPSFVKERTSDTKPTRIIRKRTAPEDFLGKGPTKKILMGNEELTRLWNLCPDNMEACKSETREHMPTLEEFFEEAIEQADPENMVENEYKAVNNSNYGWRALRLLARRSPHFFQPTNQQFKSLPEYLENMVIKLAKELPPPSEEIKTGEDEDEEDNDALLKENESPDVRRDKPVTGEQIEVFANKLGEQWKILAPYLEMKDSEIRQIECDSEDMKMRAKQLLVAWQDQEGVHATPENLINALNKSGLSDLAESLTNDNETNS
UniProt Q6ZRP7: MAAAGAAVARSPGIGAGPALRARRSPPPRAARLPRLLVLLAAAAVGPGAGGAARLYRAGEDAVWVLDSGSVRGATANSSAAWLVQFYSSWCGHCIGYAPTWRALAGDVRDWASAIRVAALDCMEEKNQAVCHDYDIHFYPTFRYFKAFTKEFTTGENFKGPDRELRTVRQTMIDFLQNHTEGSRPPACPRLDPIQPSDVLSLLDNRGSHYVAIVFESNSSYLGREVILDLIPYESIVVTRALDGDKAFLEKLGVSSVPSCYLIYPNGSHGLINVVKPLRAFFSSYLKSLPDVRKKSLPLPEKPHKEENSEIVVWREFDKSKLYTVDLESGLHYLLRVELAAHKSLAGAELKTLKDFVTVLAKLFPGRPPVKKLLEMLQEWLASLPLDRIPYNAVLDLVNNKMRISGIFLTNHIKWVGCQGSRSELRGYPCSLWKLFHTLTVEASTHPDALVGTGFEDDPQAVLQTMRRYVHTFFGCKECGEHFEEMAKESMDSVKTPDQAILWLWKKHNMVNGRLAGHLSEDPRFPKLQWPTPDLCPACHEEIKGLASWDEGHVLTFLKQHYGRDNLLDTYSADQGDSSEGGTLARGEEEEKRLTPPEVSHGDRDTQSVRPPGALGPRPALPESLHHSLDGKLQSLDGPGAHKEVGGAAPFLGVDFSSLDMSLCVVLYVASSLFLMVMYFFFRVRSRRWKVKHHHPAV
UniProt O15533, whole entry: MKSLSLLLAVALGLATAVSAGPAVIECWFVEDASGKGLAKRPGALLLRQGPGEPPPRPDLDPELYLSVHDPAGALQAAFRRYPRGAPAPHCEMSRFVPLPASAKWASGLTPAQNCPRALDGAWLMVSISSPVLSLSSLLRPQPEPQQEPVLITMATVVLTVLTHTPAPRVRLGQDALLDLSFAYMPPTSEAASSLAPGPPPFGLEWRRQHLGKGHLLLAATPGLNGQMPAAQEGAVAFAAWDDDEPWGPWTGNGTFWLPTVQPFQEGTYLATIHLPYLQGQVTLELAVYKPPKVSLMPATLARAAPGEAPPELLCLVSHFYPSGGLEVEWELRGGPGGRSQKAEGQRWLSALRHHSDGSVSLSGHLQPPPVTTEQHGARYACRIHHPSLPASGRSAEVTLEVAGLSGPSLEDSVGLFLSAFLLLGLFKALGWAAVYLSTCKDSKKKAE
UniProt O95299, whole entry: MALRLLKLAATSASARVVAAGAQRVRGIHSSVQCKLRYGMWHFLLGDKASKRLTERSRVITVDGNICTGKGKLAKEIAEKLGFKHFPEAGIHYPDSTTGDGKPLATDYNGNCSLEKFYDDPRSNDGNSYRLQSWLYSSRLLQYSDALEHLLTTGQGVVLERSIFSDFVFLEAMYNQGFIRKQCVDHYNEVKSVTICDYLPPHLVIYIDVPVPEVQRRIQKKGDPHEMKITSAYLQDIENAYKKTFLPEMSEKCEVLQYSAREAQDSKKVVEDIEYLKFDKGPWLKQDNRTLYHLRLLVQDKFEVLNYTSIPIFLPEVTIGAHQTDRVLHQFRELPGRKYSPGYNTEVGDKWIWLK
UniProt O60841: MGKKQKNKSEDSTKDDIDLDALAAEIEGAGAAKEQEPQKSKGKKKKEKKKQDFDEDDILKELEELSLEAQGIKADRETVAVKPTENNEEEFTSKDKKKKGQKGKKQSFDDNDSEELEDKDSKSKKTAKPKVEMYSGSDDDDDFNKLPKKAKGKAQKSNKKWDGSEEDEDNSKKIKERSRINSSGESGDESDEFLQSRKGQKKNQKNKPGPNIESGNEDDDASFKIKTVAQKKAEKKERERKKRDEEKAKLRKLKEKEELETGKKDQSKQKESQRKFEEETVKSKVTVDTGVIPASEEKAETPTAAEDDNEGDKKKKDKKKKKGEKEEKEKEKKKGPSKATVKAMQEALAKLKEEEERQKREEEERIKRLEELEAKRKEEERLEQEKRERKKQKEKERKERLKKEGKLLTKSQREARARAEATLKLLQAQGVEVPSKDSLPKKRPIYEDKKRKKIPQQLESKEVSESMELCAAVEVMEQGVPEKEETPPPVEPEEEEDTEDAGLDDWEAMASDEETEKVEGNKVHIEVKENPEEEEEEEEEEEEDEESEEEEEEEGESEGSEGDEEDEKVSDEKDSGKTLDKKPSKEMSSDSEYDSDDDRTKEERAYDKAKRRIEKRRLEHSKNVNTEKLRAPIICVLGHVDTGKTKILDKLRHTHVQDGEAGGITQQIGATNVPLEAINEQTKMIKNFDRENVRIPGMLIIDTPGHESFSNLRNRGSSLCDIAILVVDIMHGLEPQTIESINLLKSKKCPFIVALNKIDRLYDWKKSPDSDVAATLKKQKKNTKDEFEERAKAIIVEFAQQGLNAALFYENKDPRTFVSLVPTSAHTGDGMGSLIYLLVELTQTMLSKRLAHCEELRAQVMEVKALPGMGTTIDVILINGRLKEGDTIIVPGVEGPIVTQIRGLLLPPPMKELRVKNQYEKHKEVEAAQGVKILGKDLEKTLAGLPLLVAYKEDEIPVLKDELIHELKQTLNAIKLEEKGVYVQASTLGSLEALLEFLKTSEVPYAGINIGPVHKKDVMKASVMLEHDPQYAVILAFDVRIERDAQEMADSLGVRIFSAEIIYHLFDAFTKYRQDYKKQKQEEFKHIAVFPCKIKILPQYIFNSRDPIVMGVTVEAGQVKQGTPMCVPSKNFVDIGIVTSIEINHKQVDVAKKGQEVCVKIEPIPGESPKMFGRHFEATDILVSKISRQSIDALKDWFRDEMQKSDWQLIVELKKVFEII
UniProt Q92504: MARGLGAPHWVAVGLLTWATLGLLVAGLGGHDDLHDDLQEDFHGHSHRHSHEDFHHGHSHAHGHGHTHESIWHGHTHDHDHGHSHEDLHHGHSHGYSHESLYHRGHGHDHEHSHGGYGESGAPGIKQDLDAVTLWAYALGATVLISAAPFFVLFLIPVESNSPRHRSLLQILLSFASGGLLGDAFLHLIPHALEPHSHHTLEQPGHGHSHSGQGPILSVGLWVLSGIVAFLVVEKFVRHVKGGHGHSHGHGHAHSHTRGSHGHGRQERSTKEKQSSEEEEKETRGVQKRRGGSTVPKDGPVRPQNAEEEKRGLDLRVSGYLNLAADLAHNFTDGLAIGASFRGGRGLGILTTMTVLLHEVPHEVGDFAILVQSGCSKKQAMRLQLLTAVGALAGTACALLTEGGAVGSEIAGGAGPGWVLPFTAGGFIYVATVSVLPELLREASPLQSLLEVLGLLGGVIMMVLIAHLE
UniProt Q6IBW4: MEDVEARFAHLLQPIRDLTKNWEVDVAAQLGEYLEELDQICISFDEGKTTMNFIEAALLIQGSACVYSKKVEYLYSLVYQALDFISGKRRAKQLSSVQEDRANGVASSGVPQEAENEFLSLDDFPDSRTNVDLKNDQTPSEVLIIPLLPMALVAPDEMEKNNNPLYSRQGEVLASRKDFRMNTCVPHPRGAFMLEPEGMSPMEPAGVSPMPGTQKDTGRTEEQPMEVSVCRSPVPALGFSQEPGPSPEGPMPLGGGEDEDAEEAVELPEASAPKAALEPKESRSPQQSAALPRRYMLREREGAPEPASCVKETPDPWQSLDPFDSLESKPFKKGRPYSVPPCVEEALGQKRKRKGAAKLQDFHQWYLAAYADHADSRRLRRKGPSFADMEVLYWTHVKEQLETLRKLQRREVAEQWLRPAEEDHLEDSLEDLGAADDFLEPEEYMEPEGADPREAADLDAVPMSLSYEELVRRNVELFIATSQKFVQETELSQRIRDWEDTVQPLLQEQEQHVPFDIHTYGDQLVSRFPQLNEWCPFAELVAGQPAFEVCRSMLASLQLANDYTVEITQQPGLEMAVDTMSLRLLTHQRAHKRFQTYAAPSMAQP
UniProt Q6VN20, whole entry: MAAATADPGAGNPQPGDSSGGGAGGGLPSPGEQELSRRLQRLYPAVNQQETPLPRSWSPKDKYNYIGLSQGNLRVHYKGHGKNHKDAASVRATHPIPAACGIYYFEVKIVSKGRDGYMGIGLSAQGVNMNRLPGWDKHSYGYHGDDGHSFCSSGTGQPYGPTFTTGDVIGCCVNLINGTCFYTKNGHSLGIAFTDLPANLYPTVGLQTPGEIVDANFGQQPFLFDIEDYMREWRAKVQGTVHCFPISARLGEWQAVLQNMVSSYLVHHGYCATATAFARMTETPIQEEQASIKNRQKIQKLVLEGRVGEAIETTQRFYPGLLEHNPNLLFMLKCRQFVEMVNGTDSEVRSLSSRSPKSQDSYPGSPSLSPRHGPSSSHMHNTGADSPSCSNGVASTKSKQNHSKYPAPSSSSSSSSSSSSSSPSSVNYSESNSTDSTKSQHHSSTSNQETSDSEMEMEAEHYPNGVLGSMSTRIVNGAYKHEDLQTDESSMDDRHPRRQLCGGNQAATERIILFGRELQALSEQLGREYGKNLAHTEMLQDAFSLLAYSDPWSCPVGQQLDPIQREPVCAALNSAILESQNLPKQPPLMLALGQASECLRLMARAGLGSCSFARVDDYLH

Compound: Nc1ncnc2c1ncn2[C@@H]1O[C@H](COP(=O)(O)OP(=O)(O)OP(=O)(O)O)[C@@H](O)[C@H]1O [adenosine triphosphate]
Assay: NP40-soluble protein abundance relative to vehicle (solubility fold change) (ratio); higher = more soluble protein in presence of ATP
Summary of the method: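 Values are fold changes against the detergent-processed vehicle, based on vsn-normalised intensities. Jurkat crude lysate was treated at eight concentrations from 0.1 to 10 mM (10 min at room temperature, then 3 min at 37 °C), solubilised with 0.8% NP40 and benzonase, ultracentrifuged and analysed by TMT-labelled LC-MS/MS over three independent experiments.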

Target	NP40-soluble protein abundance (concentration: 0.1mM)	NP40-soluble protein abundance (concentration: 0.5mM)	NP40-soluble protein abundance (concentration: 1mM)	NP40-soluble protein abundance (concentration: 2mM)	NP40-soluble protein abundance (concentration: 4mM)	NP40-soluble protein abundance (concentration: 6mM)	NP40-soluble protein abundance (concentration: 8mM)	NP40-soluble protein abundance (concentration: 10mM)
A0A0A6YYA7|Q12851 and related entries (UniProt Q12851)	1.04 ± 0.052	1.03 ± 0.031	1.02 ± 0.026	1 ± 0.044	1.03 ± 0.063	0.994 ± 0.079	0.994 ± 0.026	0.998 ± 0.027
A0A0C4DG17|C9J9K3 and related entries (UniProt P08865)	0.928 ± 0.11	0.905 ± 0.11	–	–	–	–	–	–
A0A0A0MRK6|Q13505 and related entries (UniProt Q13505)	1.03 ± 0.066	1.05 ± 0.11	–	–	–	–	–	–
A0A0A0MRE5|Q9ULH1 and related entries (UniProt Q9ULH1)	0.994 ± 0.043	0.999 ± 0.091	–	–	–	–	–	–
A0A087WYG2|E9PFH7 and related entries (UniProt Q9UPT6)	1.01 ± 0.066	1.04 ± 0.12	0.979 ± 0.055	0.996 ± 0.054	0.993 ± 0.097	0.988 ± 0.094	0.959 ± 0.066	0.956 ± 0.029
A0A0A0MSK4|Q86YR5 and related entries (UniProt Q86YR5)	0.9964 ± 0.0096	0.961 ± 0.035	0.972 ± 0.037	0.99 ± 0.074	0.9991 ± 0.0089	1.018 ± 0.0076	0.96 ± 0.021	0.981 ± 0.05
A0A0C4DFM1|Q92544 (UniProt Q92544)	1.11 ± 0.15	1.06 ± 0.066	–	–	–	–	–	–
A0A087WY00|F8W6H6 and related entries (UniProt Q9Y4I1)	0.964 ± 0.048	2.74 ± 0.16	2.94 ± 0.086	2.89 ± 0.071	2.94 ± 0.14	2.96 ± 0.19	2.96 ± 0.088	2.84 ± 0.062
A0A0B4J2C3|P13693 and related entries (UniProt P13693)	0.98 ± 0.017	0.982 ± 0.021	0.95 ± 0.025	0.942 ± 0.021	0.915 ± 0.025	0.923 ± 0.05	0.919 ± 0.035	0.909 ± 0.048
A0A087WVA8|Q8IWB9 and related entries (UniProt Q8IWB9)	0.995 ± 0.024	1.01 ± 0.074	1.02 ± 0.043	0.975 ± 0.072	0.984 ± 0.062	0.982 ± 0.024	0.973 ± 0.07	0.993 ± 0.052
A0A087WWS1|Q96FV9 (UniProt Q96FV9)	1.05 ± 0.052	1.37 ± 0.09	1.509 ± 0.011	1.65 ± 0.068	1.89 ± 0.099	2.14 ± 0.2	2.31 ± 0.075	2.4 ± 0.13
A0A087X176|Q6ZRP7 (UniProt Q6ZRP7)	0.996 ± 0.071	0.987 ± 0.046	0.958 ± 0.057	0.983 ± 0.011	0.961 ± 0.028	0.99 ± 0.029	0.953 ± 0.026	0.96 ± 0.037
A0A0A0MSV9|A0A0G2JH37|A0A0G2JKZ1|A2AB90 and related entries (UniProt O15533)	1.07 ± 0.076	1.05 ± 0.12	1.04 ± 0.066	1.02 ± 0.067	0.986 ± 0.028	0.968 ± 0.047	0.99 ± 0.085	0.984 ± 0.088
A0A087X0C8|O15484 and related entries (UniProt O15484)	1.04 ± 0.039	0.983 ± 0.064	–	–	–	–	–	–
A0A0B4J220 (UniProt E9PRG8)	0.988 ± 0.06	0.991 ± 0.017	1.02 ± 0.028	1.11 ± 0.066	1.27 ± 0.17	1.31 ± 0.091	1.42 ± 0.27	1.56 ± 0.23
A0A087WXC5|O95299 and related entries (UniProt O95299)	1.01 ± 0.072	1.06 ± 0.055	1.03 ± 0.024	1.02 ± 0.033	0.982 ± 0.034	1 ± 0.022	1.02 ± 0.023	1 ± 0.034
A0A087WUT6|O60841 (UniProt O60841)	0.987 ± 0.03	1.01 ± 0.051	–	–	–	–	–	–
A0A0A0MTB8|Q8NI36 (UniProt Q8NI36)	1.06 ± 0.054	1.12 ± 0.05	1.21 ± 0.057	1.37 ± 0.057	1.68 ± 0.13	1.86 ± 0.23	2.12 ± 0.14	2.17 ± 0.17
A0A075B6F5|F5GXR6 and related entries (UniProt Q8IUG5)	1.05 ± 0.013	0.933 ± 0.026	0.986 ± 0.023	0.927 ± 0.014	1.1 ± 0.016	1.06 ± 0.022	1.14 ± 0.13	1.18 ± 0.18
A0A087WW39|P55198 (UniProt P55198)	1.03 ± 0.072	1.07 ± 0.023	–	–	–	–	–	–
A0A087WTX2|Q92504 (UniProt Q92504)	0.946 ± 0.015	0.947 ± 0.016	–	–	–	–	–	–
A0A0A6YYG7|Q6IBW4 and related entries (UniProt Q6IBW4)	1 ± 0.057	1.04 ± 0.068	–	–	–	–	–	–
A0A0D9SEU5|Q6VN20 and related entries (UniProt Q6VN20)	0.998 ± 0.025	1.03 ± 0.063	0.968 ± 0.017	0.944 ± 0.05	0.979 ± 0.02	0.996 ± 0.11	0.935 ± 0.028	0.951 ± 0.036
A0A087WV29|Q9H0A0 (UniProt Q9H0A0)	1.09 ± 0.052	1.13 ± 0.03	1.2 ± 0.1	1.37 ± 0.1	1.59 ± 0.11	1.69 ± 0.18	2.15 ± 0.14	2.32 ± 0.22

A section of the results above:
Target	NP40-soluble protein abundance (concentration: 0.1mM)	NP40-soluble protein abundance (concentration: 0.5mM)	NP40-soluble protein abundance (concentration: 1mM)	NP40-soluble protein abundance (concentration: 2mM)	NP40-soluble protein abundance (concentration: 4mM)	NP40-soluble protein abundance (concentration: 6mM)	NP40-soluble protein abundance (concentration: 8mM)	NP40-soluble protein abundance (concentration: 10mM)
A0A087WWS1|Q96FV9 (UniProt Q96FV9)	1.05 ± 0.052	1.37 ± 0.09	1.509 ± 0.011	1.65 ± 0.068	1.89 ± 0.099	2.14 ± 0.2	2.31 ± 0.075	2.4 ± 0.13
A0A087X176|Q6ZRP7 (UniProt Q6ZRP7)	0.996 ± 0.071	0.987 ± 0.046	0.958 ± 0.057	0.983 ± 0.011	0.961 ± 0.028	0.99 ± 0.029	0.953 ± 0.026	0.96 ± 0.037
